Each structure is given as a SMILES string. Screen size: about 1,400 compounds; fewer than 10 were called active. Roughly 8% stayed inconclusive and do not appear here. The call rests on the fitted dose curve; in most records, active means well fitted curve in the direction sought with a large enough effect; inconclusive means small, poorly fitted or top-dose-only effect, or another doubt; inactive means no such curve, though single readings can be large or run the other way. The list shows a part of the results.

By UniProt entry, the sequences of proteins in these tests, tags left out.
UniProt Q8NER1, whole entry, looked up: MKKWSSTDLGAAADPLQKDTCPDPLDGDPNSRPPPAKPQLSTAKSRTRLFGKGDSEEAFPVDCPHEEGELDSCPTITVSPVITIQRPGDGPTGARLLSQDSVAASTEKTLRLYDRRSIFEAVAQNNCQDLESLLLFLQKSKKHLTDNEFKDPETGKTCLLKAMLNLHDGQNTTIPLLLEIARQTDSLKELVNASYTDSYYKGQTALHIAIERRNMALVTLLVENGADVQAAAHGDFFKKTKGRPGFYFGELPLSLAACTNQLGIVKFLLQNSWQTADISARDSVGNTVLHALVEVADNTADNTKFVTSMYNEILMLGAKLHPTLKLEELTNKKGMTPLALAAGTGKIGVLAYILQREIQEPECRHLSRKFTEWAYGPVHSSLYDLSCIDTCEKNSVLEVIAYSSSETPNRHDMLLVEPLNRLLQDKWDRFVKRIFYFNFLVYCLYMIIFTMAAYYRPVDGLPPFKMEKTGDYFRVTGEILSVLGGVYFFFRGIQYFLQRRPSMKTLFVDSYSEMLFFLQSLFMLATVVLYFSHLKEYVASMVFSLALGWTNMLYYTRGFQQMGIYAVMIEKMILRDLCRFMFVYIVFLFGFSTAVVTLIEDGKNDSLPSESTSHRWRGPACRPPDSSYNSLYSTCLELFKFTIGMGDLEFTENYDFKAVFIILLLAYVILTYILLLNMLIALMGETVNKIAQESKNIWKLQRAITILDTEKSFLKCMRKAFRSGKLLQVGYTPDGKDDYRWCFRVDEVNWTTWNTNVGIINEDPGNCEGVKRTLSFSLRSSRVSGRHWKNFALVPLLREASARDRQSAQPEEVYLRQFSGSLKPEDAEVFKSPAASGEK

The target of the assay is Transient receptor potential cation channel subfamily V member 1 (Homo sapiens) (UniProt Q8NER1). Put plainly: qHTS Assay for Compounds that Act as Potentiators of the Vanilloid Receptor 1: Hit Validation. Further: % of control where 0% means no effect. Conditions: TRPV1-expressing cells, Fluo-8 calcium influx, capsaicin EC20; series mostly up to 42.1 µM; activity change, positive = potentiation: at the top concentration. Summed up:
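TRPV1 cells (2000/well, overnight 35.5 °C) loaded with Fluo-8 calcium dye 40–90 min at room temperature. FDSS fluorescence (ex 480/em 520 nm) read 3 min after compound, then 2 min after capsaicin at EC20.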
A general note: qHTS replaces the single test concentration by a dilution series.
Consider `Cc1cc(/C=N\O)c(C)n1-c1ccncc1`, for which the “activity change, positive = potentiation” value was inactive: -6.74%.

With `O=C(O)CC1S/C(=N/N=C/c2ccc(-c3ccc(Cl)c([N+](=O)[O-])c3)o2)NC1=O` (centres undefined), the “activity change, positive = potentiation” value is inactive: 3.41%. In the case of `CCOc1c(Nc2ccc(C(C)C)cc2)c(=O)c1=O` it was inactive: -36.4%; in that of `O=C(Nc1ccccc1Cl)c1ccn[nH]1`, inactive: 3.29%.

For `COc1ccc(C(=O)Nc2ccc(C3(C#N)CCCC3)cc2)cc1`, the “activity change, positive = potentiation” value is inactive: 14.5%.

Consider `O=C(O)CC1Sc2nc3ccccc3n2C1=O` (centres undefined), for which the “activity change, positive = potentiation” value was inactive: -14.8%. As to `NC(=O)c1nn(-c2ccccc2)nc1N`, the “activity change, positive = potentiation” value was inactive: -2.78%. Take `Cc1cc2c(NC(=O)Nc3ccccc3)cccc2nn1`: the “activity change, positive = potentiation” value was inactive: -36.4%. For the compound `COc1ccc(Nc2nc(C)nc3c2oc2ccccc23)cc1`, the “activity change, positive = potentiation” value was inactive: -37.7%. The value for `CCNc1nc(CC)nc2c1oc1ccccc12` was inactive: -36.6%; that for `COc1cc(CN2CCN(CCCc3ccccc3)C(CCO)C2)cc(OC)c1O` (centres undefined) was inactive: 35.9%.

Take `O=C(Nc1ccc(F)cc1)c1cc2ccccc2o1`: the “activity change, positive = potentiation” value was inactive: -32.5%. In the case of `CCOCc1c(C(=O)Nc2ccc(OC)nc2)oc2ccccc12` it was inactive: -32.4%; in that of `O=C1CC(c2ccccc2)CC(O)=C1C=NCCc1ccccc1` (centres undefined), inactive: -7.4%; in that of `CS(=O)(=O)c1ccc(C(=O)Nc2ccc(N3CCCCC3)cc2)c(Cl)c1`, inactive: -30%.

For `COc1ccc(C2CC(C(F)(F)F)n3nc(C(=O)NCc4c(C)nn(C)c4C)c(Cl)c3N2)cc1` (centres undefined), the “activity change, positive = potentiation” value was inactive: -5.63%. In the case of `N#C/C(=C\c1ccccc1)C(=O)OCC(=O)N1CCCC1` it was inactive: 6.47%; in that of `Cc1ccccc1NC(=O)COc1cccc2c1CCNC2=O`, inactive: 4.66%; in that of `O=[N+]([O-])C1C(c2ccccc2)=NOC1c1ccccc1O` (centres undefined), inactive: -9.52%. On to `COc1ccc2c(c1)cc(C(=O)N[C@H](C(=O)N1CCC[C@H]1C(=O)O)C(C)C)n2C`, for which the “activity change, positive = potentiation” value was inactive: -6.61%. For `O=C(NCCc1ccc(Cl)cc1)c1cc2ccccn2n1`, the “activity change, positive = potentiation” value was inactive: -36%. As to `COc1ccc(S(=O)(=O)N2CCOC23CCN(S(=O)(=O)c2ccc(C)cc2)CC3)cc1`, the “activity change, positive = potentiation” value is inactive: 4.77%. For the compound `COC(CNC(=O)c1ccc2c(c1)ncn2-c1ccc(F)cc1F)OC`, the “activity change, positive = potentiation” value is inactive: -5.19%. On to `COc1cc(CNc2ccc3[nH]c(=O)[nH]c3c2)ccc1OCc1c(F)cccc1Cl`, for which the “activity change, positive = potentiation” value was inactive: -15.4%.

As to `COC(=O)[C@@]12CCCCN1[C@H](c1ccc(-c3ccc(C(C)=O)cc3)cc1)[C@H]1C(=O)N(C)C(=O)[C@H]12`, the “activity change, positive = potentiation” value was inactive: -1.08%.

Regarding `Nc1c(Cl)ncnc1NCc1ccccc1`, the “activity change, positive = potentiation” value is inactive: 9.46%. Turning to `O=C(Nc1nnc2n1CCS2)c1ccc(Br)o1`, the “activity change, positive = potentiation” value is inactive: -4.08%. The value for `CN(C)C(=O)NCc1ccc(S(N)(=O)=O)cc1` was inactive: -3.33%; that for `O=C(Nc1ccc(N2CCCC2)cc1)c1cccc(Cl)c1Cl` was inactive: -24.2%. On to `C=CCOc1c(Br)cc(CNc2ccc(NC(=O)C(C)C)cc2)cc1OCC`, for which the “activity change, positive = potentiation” value was inactive: -15%. The value for `CCC(Oc1ccccc1)C(=O)Nc1nnc(C(F)(F)F)s1` (centres undefined) was inactive: -7.55%; that for `CN(c1ccccc1)S(=O)(=O)c1cccc(NC(=O)Cn2cnc3ccccc3c2=O)c1` was inactive: -5.16%. In the case of `CCN1CCN(CCCN(Cc2ccco2)C(=S)Nc2ccccc2Cl)CC1`, the “activity change, positive = potentiation” value was inactive: -6.3%. In the case of `O=c1c2ccccc2c(=O)n2n1Cc1ccccc1C2`, the “activity change, positive = potentiation” value is inactive: -4.89%. The value for `CC(=O)O/N=C1\C(=O)N(Cc2ccc(C)cc2)c2ccccc21` was inactive: -10%; that for `CC(C)OCCCNC(=O)C(NC(=O)c1ccc(Cl)cc1)C(C)C` (centres undefined) was inactive: -22.8%. With `O=c1c(-c2nnc(SCc3ccc(Cl)cc3)o2)cccn1Cc1ccccc1`, the “activity change, positive = potentiation” value was inactive: 10.5%. In the case of `Cc1ccc(C(=O)Nc2ccc3cn[nH]c3c2)cc1S(=O)(=O)N1CCOCC1` it was inactive: -28.3%; in that of `CC(C)(C)OC(=O)CNC(=O)c1[nH]cnc1C(=O)N[C@@H](Cc1ccccc1)C(=O)OC(C)(C)C`, inactive: -38.9%.

As to `CC(C)NC(=O)CC1OC(=O)c2ccccc21` (centres undefined), the “activity change, positive = potentiation” value is inactive: 5.25%.

For `CCCCc1ccc(NC(=S)N2CCC(O)CC2)cc1`, the “activity change, positive = potentiation” value was inactive: -38%. With `CC(C)c1ccc(OCC(=O)Nc2ccncc2)cc1`, the “activity change, positive = potentiation” value was inactive: -38.4%.

On to `CCOC(=O)c1c(C)c(C(=O)NCC2CCCO2)c(C)n1C` (centres undefined), for which the “activity change, positive = potentiation” value is inactive: -7.81%. In the case of `CCC(=O)N1CCN(c2nc(-c3ccccc3)c3c(c2C#N)CCCC3)CC1` it was inactive: -36%; in that of `CCNC(=O)NC(=O)C(C)OC(=O)c1cccn1C` (centres undefined), inactive: -7.78%; in that of `CC(C)C[C@H](NC(=O)c1[nH]cnc1C(=O)N[C@@H](Cc1ccccc1)C(=O)OC(C)(C)C)C(=O)OC(C)(C)C`, inactive: -33.7%. Regarding `COc1ccc(CC(=O)Nc2cccc(SC)c2)cc1OC`, the “activity change, positive = potentiation” value was inactive: -39.2%. As to `COc1ccc(OC)c(N2C(=O)CC(Cc3cc(C)cc(C)c3)C2=O)c1` (centres undefined), the “activity change, positive = potentiation” value is inactive: 4.55%. As to `CCOC(=O)[C@H]1[C@H]2COc3ccc(Cl)cc3[C@@H]2N2C(=O)c3ccc(Cl)cc3NC(=O)[C@@]12C`, the “activity change, positive = potentiation” value was inactive: 3%. In the case of `O=C(/C=C/c1ccc(Cl)c([N+](=O)[O-])c1)c1ccc(O)cc1` it was inactive: -37.7%; in that of `Cc1c(OCC(=O)N2CCC(C(=O)O)CC2)ccc2c1oc(=O)c1ccccc12`, inactive: 1.98%.

Take `COc1ccc2nc(-c3ccccc3)[nH]c2c1`: the “activity change, positive = potentiation” value was inactive: -11.1%. The value for `C#CCOCCOCCOCCNc1nc(N2CCN(C(=O)CCCCCCCCCCNC(=O)[C@H](CCCCN)n3cc(CCCC(=O)O)nn3)CC2)nc(N2CCN(C(=O)CCCCCCCCCCNC(=O)[C@H](CCCCN)n3cc(CCCC(=O)O)nn3)CC2)n1` was inactive: -9.37%; that for `Cc1cc(=O)n2c(n1)SCOC2` was inactive: -5.78%; that for `Fc1ccc(CN2CCN(c3ncnc4scc(-c5ccc(F)cc5)c34)CC2)cc1` was inactive: -22%. In the case of `O=C(O)C1CC(=O)N(c2ccc(F)cc2)C1` (centres undefined) it was inactive: -8.98%; in that of `O=C(CNC(=O)c1ccc2c(c1)OCO2)N/N=C(Br)/C=C/c1ccccc1`, inactive: -9.13%; in that of `COc1cc(Cl)c(C)cc1NC(=O)Cc1ccc(OC)c(OC)c1`, inactive: -35.2%. With `CC(C)(C)c1ccc(C(=O)Nc2ccc3c(c2)C(=O)NC3=O)cc1`, the “activity change, positive = potentiation” value is inactive: -38.2%.

On to `Cc1[nH]c2ccccc2c1-c1nc2ccccc2[nH]1`, for which the “activity change, positive = potentiation” value was inactive: -11.8%. Take `COc1ccc(CNC(=O)C2(CC3CC(c4ccccc4)=NO3)CCN(C(=O)C3CCCC3)CC2)cc1` (centres undefined): the “activity change, positive = potentiation” value is inactive: -5.73%.

On to `Cc1ccc(NC(=O)COC(=O)c2oc3ccccc3c2C)cc1S(=O)(=O)N1CCOCC1`, for which the “activity change, positive = potentiation” value is inactive: -2.71%. On to `O=C(N/N=C/C=C/c1ccccc1)c1ccccn1`, for which the “activity change, positive = potentiation” value is inactive: -0.876%. On to `COCCNC(=O)CSc1nc2ccccc2c(=O)n1CC1CCCO1` (centres undefined), for which the “activity change, positive = potentiation” value is inactive: 0.611%. The value for `O=C(Nc1cccc(-c2cn3ccccc3n2)c1)C1CC1` was inactive: -6.54%; that for `c1ccc(-c2csc(N3CCN(c4ccccn4)CC3)n2)cc1` was inactive: -27.3%; that for `CCc1ccc(NC(=O)Nc2ccc3c(c2)N(C)C(=O)CS3)cc1` was inactive: -38.6%. Take `COc1cc(C(=O)N(CCN(C)C)CC2CCCN(Cc3ccccc3F)C2)ccc1C` (centres undefined): the “activity change, positive = potentiation” value was inactive: -2.16%. The value for `N=c1c(S(=O)(=O)c2ccc(Br)cc2)cc2c(=O)n3ccccc3nc2n1C1CCCC1` was inactive: -8.18%.

The record behind these values is PubChem BioAssay AID623959 (National Center for Advancing Translational Sciences (NCATS), 2012).
